Where a chain is given by its changes, count along the chain named. No constants are given. Whether binding was seen depends on the method and setting. Some entries that bind do so weakly or less than the wild type. For some of these results: Where a sequence is shown, tags or fusion partners need not be part of it.
Key:
[1] = biological target: T1, Cynomolgus IL22 (cynomolgus) (UniProt G7PHZ7); assay: binding screen of recombinant cloned Fabs
T1 sequence: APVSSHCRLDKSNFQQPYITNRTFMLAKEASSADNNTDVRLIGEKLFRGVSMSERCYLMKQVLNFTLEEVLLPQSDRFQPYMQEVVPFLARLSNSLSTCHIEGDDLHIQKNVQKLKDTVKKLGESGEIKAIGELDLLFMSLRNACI

[2] = biological target: Cleaved IL22 (IL-22 protein sequence after TEV cleavage) (human) (UniProt Q9GZX6); assay: complex purified by size-exclusion chromatography and crystallised (X-ray)
[3] = biological target: T2, IL-22 expressed in Expi293 cells (N-terminal human Fc tag cleaved with TEV) (human) (UniProt Q9GZX6); assay: size-exclusion chromatography of the ternary complex, then cryo-EM
T2 sequence (chain, glycosylated (glycosylation sites seen in cryo-EM classes)): T1 sequence with V3I, S32L, R48H, L72F, S95R, K110R

B1: rabbit 11041 Fab (Fab, V domains shown)
VH: QSVEESGGRLVTPGTPLTLTCTVSGFSLSSYAMIWVRQAPGEGLEWIGIIDIDGSTYYASWAKGRFTISRTSTTVDLKITSPTTGDTATYFCARDRFVGVDIFDPWGPGTLVTVSS
VL: AVVLTQTASPVSAPVGGTVTIKCQASEDIYTNLAWYQQKPGQPPKLLIYWASTLASGVPSRFKGSGSGTEFTLTISDLECADAATYYCQACVYGNSADSRYTFGGGTEVVVK
How did the binding [1] turn out when B1 was run?
Its binding is “binds”.

B2: 11070 (rat derived, parental) (Fab, V domains shown)
VH: EVQLQESGPGLVQPSQTLSPTCTVSGFSLTSYSVHWVRQHSGKSLEWMGRMWSDGDTSYNSAFTSRLSITRDTSKSQVFLKMNSLQTEDTGTYYCARSLDFYYDTTLAFWGPGTTVTVSS
VL: DIVMTQTPSNLAASPGESVSINCKASKTISKYLAWYQQKPGKANKLLIYSGSTLQSGTPSRFSGSGSSTDFTLTIRNLEPEDFGLYYCQQHNEYPLTFGSGTKLEIK
How did the binding [1] turn out when B2 was run?
The binding was “binds”.

B3: 11041gL13gH14 Fab (Fab, V domains shown)
VH: EVQLVESGGGLVQPGGSLRLSCAVSGFSLSSYAMIWVRQAPGKGLEWIGIIDIEGSTYYASWAKGRFTISRDNSKNTVYLQMNSLRAEDTAVYYCARDRFVGVDIFDPWGQGTLVTVSS
VL: AVQLTQSPSSLSASVGDRVTITCQASEDIYTNLAWYQQKPGKAPKLLIYWASTLASGVPSRFSGSGSGTDFTLTISSLQPEDFATYYCQASVYGNAADSRYTFGGGTKVEIKR
notes: Humanized Fab; also called VR11041
For B3, which binding [2] is on record?
Its binding is “binds”.

B4: 11070gL7gH16 Fab (Fab, V domains shown)
VH: EVQLQESGPGLVKPSQTLSLTCTVSGFSLTSYSVHWVRQHPGKGLEWIGRMWSDGDTSYNTAFTSRLTISRDTSKNQVSLKLSSVTAADTAVYYCARSLDFYYDTTLAFWGQGTTVTVSS
VL: DIQMTQSPSSVSASVGDRVTITCKASKTISKYLAWYQQKPGKANKLLIYSGSTLQSGVPSRFSGSGSGTDFTLTISSLQPEDFATYYCQQHNEYPLTFGQGTKLEIKR
B4 was tested. Which binding [3] did it give?
Its binding is “binds”.
